# Assay results as given in publication PMC4770718.
# Amino acid sequences for entries named in this document (tags omitted). Residues count along the entry.
# UniProt Q9QUK6, residues 26-835: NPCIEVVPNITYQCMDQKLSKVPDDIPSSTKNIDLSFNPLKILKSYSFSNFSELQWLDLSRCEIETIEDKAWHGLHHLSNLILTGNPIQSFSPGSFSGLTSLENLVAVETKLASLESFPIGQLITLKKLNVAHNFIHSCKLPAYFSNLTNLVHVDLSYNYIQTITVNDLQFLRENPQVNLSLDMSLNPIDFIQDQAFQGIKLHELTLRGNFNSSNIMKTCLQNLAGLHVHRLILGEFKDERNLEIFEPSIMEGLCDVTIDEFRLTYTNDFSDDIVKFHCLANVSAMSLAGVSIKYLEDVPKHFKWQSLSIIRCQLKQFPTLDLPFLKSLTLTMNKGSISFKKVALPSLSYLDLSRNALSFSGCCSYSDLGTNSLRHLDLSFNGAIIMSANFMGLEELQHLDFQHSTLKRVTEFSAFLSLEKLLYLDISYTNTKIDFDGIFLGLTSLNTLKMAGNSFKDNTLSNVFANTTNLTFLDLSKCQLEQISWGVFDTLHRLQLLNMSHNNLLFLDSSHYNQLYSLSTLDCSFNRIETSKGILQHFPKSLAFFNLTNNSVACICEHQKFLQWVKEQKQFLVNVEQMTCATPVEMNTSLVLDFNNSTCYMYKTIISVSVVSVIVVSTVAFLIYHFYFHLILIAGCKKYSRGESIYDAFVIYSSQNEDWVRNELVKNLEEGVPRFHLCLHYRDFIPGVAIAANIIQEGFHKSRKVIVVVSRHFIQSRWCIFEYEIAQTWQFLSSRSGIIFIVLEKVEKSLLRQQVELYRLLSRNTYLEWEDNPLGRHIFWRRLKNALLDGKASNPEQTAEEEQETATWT
# UniProt Q9QUN7, residues 25-784: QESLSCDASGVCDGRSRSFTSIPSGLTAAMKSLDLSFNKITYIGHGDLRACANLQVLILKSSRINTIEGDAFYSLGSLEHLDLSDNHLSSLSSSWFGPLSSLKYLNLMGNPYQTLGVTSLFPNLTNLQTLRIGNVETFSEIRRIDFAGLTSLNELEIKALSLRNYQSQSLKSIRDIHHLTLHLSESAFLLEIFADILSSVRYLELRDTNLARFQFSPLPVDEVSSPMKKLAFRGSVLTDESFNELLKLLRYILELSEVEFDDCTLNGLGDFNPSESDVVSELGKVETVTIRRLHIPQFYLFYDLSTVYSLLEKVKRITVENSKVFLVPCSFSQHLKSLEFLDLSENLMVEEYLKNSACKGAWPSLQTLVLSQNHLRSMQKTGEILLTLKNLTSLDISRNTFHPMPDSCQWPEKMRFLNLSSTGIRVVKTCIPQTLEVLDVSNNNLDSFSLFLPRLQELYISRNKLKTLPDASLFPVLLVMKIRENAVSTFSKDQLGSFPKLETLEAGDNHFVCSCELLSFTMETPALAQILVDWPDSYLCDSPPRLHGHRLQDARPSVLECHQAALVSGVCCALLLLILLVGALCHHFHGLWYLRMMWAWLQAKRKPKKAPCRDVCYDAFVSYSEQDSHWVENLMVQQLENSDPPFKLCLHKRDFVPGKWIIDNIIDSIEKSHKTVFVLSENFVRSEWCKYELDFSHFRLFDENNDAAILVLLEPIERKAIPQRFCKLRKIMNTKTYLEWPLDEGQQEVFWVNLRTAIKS
# No constants are given. Whether binding was seen depends on the method and setting. Binding seen in cells or lysates may run through a third protein. Some binding calls cover weakened binding; strength is not graded here. Tags and fused reporters may be left off the sequences shown.
# Key:
# [1] = molecular target: Toll-like receptor 4 (mouse) (mouse (endogenous in macrophages of C57BL/6 mice)) (UniProt Q9QUK6); assay: co-IP; mouse macrophages treated with PPE26 (10 μg/ml) for 6 h, lysed in RIPA buffer; lysates immunoprecipitated with anti-His (methods: anti-PPE26), anti-TLR2 or anti-TLR4 and control IgG; blots with anti-His, anti-TLR2, anti-TLR4; only the binder purified
# [2] = molecular target: Toll-like receptor 2 (mouse) (mouse (endogenous in macrophages of C57BL/6 mice)) (UniProt Q9QUN7); assay: as above
binder,measurement,setting,value
"Recombinant PPE26 (Rv1789) of M. tuberculosis H37Rv, His-tagged (protein, UniProt Q79FK6 1-393) MDFGALPPEVNSVRMYAGPGSAPMVAAASAWNGLAAELSSAATGYETVITQLSSEGWLGPASAAMAEAVAPYVAWMSAAAAQAEQAATQARAAAAAFEAAFAATVPPPLIAANRASLMQLISTNVFGQNTSAIAAAEAQYGEMWAQDSAAMYAYAGSSASASAVTPFSTPPQIANPTAQGTQAAAVATAAGTAQSTLTEMITGLPNALQSLTSPLLQSSNGPLSWLWQILFGTPNFPTSISALLTDLQPYASFFYNTEGLPYFSIGMGNNFIQSAKTLGLIGSAAPAAVAAAGDAAKGLPGLGGMLGGGPVAAGLGNAASVGKLSVPPVWSGPLPGSVTPGAAPLPVSTVSAAPEAAPGSLLGGLPLAGAGGAGAGPRYGFRPTVMARPPFAG",binding,[1],no binding (tested: 10μg/ml)
same,binding,[2],binds
